Experimental data reported in paper PMC5996148.
This is one part of the list. For some assays here: Construct or isoform of the protein are uncertain.

Tests used:
Experiment in all cases: protein microarray (ProtoArray v5.0), streptavidin-Alexa Fluor 647
Settings in all cases: 3'-biotin; 20 mM Tris (pH 7.5), 5 mM MgCl2, 100 mM KCl, 0.1% Tween-20, A/T-rich and random oligonucleotide blockers; temperature not stated; high values mean tight binding
[1] = test system: Baculoviral IAP repeat-containing protein 7 (human)
[2] = test system: Bcl-2-related proline-rich protein (human)
[3] = test system: Beta-2-microglobulin (human)
[4] = test system: Bifunctional protein NCOAT (human)
[5] = test system: Biogenesis of lysosome-related organelles complex 1 subunit 1 (human)
[6] = test system: Branched-chain-amino-acid aminotransferase, mitochondrial (human)
[7] = test system: Breast carcinoma-amplified sequence 4 (human)
[8] = test system: C-C motif chemokine 20 (human)
[9] = test system: C-C motif chemokine 4 (human)
[10] = test system: C-Maf-inducing protein (human)
[11] = test system: C-terminal-binding protein 1 (human)
[12] = test system: C-type lectin domain family 12 member A (human)
[13] = test system: C-type lectin domain family 2 member D (human)
[14] = test system: C10orf26 (human)
[15] = test system: C10orf35 (human)
[16] = test system: C10orf46 (human)
[17] = target: T1, C10orf58 (UniProt Q9BRX8)
T1 sequence: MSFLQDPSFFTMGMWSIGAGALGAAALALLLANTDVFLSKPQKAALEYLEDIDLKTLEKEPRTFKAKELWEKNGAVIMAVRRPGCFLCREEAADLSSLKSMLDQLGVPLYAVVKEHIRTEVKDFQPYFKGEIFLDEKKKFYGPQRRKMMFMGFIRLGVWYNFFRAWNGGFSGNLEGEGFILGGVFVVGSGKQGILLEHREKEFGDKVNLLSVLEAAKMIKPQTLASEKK

[18] = test system: C11orf51 (human)
[19] = test system: C11orf53 (human)
[20] = test system: C11orf58 (human)

For “GGGGACAGGGGTATGGGGAGGGG [G4-3 biotinylated (CtG)]”, the binding signal [1] was -0.336 z-score, the binding signal [2] was -0.324 z-score and the binding signal [3] was -0.326 z-score. It also gave a binding signal [4] of -0.333 z-score, a binding signal [5] of -0.32 z-score and a binding signal [6] of -0.343 z-score. The binding signal [7] was -0.337 z-score, the binding signal [8] was -0.314 z-score and the binding signal [9] was -0.322 z-score. For the same sequence, the binding signal [10] was -0.333 z-score, the binding signal [11] was -0.342 z-score and the binding signal [12] was -0.329 z-score. For the same sequence, the binding signal [13] was -0.312 z-score, the binding signal [14] was -0.33 z-score and the binding signal [15] was -0.333 z-score. It also gave a binding signal [16] of -0.326 z-score, a binding signal [17] of -0.314 z-score and a binding signal [18] of -0.341 z-score. It also gave a binding signal [19] of -0.319 z-score and a binding signal [20] of -0.337 z-score.
